No constants are given. Whether binding was seen depends on the method and setting. Binding seen in cells or lysates may run through a third protein. These calls come from enrichment with a bait or labelling near it, and not all partners need be listed.

Amino acid sequences for entries named in this document (tags omitted). Residues count along the entry.
UniProt P23471, residues 25-2315: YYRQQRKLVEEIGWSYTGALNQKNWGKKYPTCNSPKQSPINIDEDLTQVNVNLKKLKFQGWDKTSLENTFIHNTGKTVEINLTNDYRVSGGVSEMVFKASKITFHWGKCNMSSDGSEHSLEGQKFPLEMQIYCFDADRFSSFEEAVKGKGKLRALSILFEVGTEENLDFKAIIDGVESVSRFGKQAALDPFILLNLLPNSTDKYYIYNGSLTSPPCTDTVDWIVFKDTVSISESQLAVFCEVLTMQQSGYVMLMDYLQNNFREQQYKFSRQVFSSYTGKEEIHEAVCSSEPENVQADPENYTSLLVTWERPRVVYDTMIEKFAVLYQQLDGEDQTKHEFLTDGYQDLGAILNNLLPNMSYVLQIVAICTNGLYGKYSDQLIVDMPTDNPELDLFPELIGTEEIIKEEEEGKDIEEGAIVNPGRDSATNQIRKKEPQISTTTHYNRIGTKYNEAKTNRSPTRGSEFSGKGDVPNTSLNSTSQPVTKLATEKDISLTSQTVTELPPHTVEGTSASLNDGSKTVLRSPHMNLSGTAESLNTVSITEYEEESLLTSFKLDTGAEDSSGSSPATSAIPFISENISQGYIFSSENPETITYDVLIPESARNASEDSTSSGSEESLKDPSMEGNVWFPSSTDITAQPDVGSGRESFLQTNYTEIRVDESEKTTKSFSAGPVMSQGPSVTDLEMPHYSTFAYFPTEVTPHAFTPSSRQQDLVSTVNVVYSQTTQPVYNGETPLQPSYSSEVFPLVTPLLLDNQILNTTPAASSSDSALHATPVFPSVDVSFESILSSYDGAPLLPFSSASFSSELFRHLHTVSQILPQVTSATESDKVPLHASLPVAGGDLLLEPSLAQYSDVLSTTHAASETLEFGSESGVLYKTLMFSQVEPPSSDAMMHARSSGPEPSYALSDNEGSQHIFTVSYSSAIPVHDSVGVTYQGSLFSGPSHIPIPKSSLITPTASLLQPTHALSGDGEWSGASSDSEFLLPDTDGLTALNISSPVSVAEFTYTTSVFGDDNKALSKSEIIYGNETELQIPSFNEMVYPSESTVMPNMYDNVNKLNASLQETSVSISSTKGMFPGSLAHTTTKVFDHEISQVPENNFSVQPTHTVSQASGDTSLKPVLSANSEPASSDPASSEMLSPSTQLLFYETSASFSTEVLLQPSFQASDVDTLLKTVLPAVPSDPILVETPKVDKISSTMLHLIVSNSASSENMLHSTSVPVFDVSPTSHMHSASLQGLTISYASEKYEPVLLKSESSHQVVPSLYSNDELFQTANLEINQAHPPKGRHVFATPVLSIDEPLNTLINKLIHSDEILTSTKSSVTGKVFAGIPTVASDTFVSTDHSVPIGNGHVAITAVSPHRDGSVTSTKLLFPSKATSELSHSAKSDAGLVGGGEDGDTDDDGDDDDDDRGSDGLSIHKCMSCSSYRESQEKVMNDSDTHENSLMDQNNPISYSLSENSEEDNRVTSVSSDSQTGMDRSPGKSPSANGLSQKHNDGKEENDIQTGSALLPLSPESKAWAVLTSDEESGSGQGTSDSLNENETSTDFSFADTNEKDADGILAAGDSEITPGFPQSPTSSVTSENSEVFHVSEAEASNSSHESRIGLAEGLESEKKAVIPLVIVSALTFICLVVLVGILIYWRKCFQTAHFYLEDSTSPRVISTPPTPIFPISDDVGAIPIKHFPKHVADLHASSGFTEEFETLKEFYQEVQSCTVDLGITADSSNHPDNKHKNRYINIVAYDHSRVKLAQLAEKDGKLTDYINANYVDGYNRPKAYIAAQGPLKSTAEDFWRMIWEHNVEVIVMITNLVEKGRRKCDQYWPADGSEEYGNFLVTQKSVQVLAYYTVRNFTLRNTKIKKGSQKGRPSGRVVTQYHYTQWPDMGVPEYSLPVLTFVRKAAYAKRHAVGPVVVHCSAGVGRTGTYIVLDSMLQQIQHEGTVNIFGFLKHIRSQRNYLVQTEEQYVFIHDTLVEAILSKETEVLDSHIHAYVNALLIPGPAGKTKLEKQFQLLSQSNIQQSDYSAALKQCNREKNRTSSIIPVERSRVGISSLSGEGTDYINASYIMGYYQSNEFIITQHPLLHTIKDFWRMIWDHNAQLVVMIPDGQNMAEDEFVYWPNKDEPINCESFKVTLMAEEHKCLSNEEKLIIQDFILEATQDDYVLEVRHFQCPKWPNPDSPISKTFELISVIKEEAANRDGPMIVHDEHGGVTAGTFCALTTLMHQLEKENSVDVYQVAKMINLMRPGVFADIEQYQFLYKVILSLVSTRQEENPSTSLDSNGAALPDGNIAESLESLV
UniProt Q15078: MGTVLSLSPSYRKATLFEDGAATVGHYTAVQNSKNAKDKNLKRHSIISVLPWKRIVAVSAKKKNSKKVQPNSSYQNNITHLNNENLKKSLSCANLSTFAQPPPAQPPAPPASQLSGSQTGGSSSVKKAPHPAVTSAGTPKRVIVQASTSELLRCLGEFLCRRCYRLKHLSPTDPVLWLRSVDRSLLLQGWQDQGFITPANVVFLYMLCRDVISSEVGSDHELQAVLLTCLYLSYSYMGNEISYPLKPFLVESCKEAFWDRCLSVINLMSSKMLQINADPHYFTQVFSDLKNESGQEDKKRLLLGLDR

The values below come from paper PMC5897396.

The experiment concerns the target receptor protein tyrosine phosphatase beta/zeta (human (endogenous in HUVEC)) (UniProt P23471). In words: affinity purification with mass spectrometry; 3 mg total protein of HUVEC lysate immunoprecipitated with an anti-RPTPβ/ζ antibody; SDS-PAGE, silver stain, in-gel trypsin digestion, MALDI-TOF peptide mass fingerprint.

Take “cyclin-dependent kinase 5 activator 1, p35 (from UniProt Q15078 1-307)”: the binding entry is given as “binds”.
